# Measurements from the Kinase Knowledgebase extract (Sharma et al. 2016).
# Protein sequences, listed by entry. Tags and fused reporters are not part of them. Lines headed by an entry give the natural chain unless they say otherwise; changes in a name come on top.
# UniProt P42338: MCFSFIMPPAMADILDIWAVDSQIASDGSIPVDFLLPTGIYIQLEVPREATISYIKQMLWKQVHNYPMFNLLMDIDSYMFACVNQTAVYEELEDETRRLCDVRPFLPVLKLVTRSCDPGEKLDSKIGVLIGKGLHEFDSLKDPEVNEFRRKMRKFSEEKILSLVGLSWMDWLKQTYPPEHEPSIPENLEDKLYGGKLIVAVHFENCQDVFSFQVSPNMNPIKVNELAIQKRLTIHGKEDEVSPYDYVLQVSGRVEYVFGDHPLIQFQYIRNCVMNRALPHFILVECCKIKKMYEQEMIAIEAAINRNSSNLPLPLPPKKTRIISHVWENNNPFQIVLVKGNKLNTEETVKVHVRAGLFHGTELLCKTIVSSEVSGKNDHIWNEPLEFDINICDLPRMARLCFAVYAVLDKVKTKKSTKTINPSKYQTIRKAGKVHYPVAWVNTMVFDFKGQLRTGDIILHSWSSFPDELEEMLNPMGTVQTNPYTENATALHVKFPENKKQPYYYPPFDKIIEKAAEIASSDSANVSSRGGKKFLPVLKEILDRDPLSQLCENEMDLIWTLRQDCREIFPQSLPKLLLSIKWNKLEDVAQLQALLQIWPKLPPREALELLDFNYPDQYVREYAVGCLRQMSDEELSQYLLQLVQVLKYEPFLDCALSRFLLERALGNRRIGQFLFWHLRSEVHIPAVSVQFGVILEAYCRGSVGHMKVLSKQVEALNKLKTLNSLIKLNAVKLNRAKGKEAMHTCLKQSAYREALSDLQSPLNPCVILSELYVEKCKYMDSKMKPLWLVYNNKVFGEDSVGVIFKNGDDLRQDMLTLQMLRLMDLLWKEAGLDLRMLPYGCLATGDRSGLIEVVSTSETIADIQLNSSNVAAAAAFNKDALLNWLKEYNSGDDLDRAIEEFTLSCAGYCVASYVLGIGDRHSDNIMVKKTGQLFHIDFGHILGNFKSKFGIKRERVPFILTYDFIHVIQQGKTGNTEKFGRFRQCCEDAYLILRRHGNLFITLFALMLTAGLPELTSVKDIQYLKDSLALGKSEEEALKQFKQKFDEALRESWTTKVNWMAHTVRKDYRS
# UniProt O00329: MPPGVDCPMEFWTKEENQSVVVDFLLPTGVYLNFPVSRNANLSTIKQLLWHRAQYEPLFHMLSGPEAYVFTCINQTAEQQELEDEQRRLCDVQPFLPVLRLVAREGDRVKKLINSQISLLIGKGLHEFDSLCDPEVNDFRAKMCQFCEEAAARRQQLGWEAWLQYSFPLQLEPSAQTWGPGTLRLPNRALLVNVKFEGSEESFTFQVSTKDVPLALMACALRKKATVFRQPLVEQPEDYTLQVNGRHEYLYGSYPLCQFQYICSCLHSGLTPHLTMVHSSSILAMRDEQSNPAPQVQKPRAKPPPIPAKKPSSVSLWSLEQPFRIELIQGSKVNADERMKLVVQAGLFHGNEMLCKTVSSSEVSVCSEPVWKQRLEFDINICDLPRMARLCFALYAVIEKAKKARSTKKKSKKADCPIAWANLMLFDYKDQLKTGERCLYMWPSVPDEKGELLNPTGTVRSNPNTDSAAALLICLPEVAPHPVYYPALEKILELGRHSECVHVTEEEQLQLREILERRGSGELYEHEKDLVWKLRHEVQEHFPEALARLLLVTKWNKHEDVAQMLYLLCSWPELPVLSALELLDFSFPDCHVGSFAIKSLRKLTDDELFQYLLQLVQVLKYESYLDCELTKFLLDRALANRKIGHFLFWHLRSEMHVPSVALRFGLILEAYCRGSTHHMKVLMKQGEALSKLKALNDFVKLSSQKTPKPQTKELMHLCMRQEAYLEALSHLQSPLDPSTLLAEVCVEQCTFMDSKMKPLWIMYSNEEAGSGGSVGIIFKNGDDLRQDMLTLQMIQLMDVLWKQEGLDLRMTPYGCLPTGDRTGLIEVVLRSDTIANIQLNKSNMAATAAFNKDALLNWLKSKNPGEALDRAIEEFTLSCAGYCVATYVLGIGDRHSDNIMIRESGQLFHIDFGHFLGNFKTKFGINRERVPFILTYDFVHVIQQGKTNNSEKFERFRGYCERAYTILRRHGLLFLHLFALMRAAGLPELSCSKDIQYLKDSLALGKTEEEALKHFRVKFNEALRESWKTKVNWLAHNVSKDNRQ
# pIC50: −log10 of the molar value.
# What was measured:
# [1] = molecular target: PIK3CB (Human) (UniProt P42338)
# [2] = molecular target: PIK3CD (Human) (UniProt O00329)
Structure (SMILES),pIC50 [1],pIC50 [2]
Cc1cc(-c2cc(-c3cc(S(=O)(=O)N[C@@H](CO)C(F)(F)F)ccc3C)cnc2N)on1,< 5.00,6.14
Cc1cc(-c2cc(-c3cc(S(=O)(=O)N[C@H](CO)C(F)(F)F)ccc3C)cnc2N)on1,5.30,5.92
